Results taken from PMC7862700.
The entries are a selection whose mix differs from that of the whole data set. For some assays here: At the low end of the ranking, values are background and their order means little.

Target: T1, ERG (UniProt P11308)
T1 sequence: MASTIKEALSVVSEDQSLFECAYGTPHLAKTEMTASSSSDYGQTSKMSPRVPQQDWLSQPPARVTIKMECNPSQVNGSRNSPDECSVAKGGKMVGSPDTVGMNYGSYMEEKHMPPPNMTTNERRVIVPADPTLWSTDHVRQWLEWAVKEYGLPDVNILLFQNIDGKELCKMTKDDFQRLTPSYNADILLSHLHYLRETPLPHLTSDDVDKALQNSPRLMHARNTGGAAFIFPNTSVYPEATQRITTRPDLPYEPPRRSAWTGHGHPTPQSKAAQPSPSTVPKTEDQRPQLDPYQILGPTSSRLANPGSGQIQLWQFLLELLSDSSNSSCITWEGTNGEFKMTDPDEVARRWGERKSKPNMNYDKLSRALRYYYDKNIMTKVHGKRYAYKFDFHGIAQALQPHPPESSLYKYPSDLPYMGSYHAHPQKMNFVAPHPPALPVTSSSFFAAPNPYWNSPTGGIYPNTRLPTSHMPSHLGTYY
Assay: DAPPL (digital affinity profiling via proximity ligation, sequencing)
Conditions: 10 mM Tris-HCl pH 7.5, 50 mM NaCl, 1 mM DTT, 4% glycerol, room temperature, 30 min; GST-TFs on glutathione beads, 16-mer random dsDNA library, 0.1% …; high values mean tight binding; double strand, one strand shown; scale: fold enrichment (6-mer frequency, TF over GST control)

| Sequence | binding signal |
| --- | --- |
| TCGCAC | 1.07 |
| ATCTTT | 1.21 |
| TTATCA | 1.06 |
| TCATTC | 1.27 |
| TCTCAA | 1.28 |
| ATGATA | 1.26 |
| GAAGCT | 1.64 |
| CTTAGA | 1.09 |

Target: T2, ELK4 (UniProt P28324-2)
T2 sequence: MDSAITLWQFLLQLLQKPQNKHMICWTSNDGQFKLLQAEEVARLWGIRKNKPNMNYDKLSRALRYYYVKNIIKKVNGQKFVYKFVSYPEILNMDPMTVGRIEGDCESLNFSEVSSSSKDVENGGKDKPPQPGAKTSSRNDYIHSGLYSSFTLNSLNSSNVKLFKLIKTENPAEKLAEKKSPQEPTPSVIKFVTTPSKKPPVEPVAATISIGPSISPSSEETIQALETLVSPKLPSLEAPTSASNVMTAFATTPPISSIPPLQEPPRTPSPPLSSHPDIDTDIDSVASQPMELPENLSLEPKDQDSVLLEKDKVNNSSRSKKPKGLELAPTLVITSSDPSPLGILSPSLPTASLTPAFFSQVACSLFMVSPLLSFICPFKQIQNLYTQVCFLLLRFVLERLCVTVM
Assay: as above
Conditions: 10 mM Tris-HCl pH 7.5, 50 mM NaCl, 1 mM DTT, 4% glycerol, room temperature, 30 min; GST-TFs on glutathione beads, 16-mer random dsDNA library, 0.1% …; high values mean tight binding; double strand, one strand shown; scale: fold enrichment (6-mer frequency, TF over GST control)

| Sequence | binding signal |
| --- | --- |
| CAAAAC | 1.28 |
| CTCCCG | 1.46 |
| TTCATA | 1.2 |
| ACATAT | 1.22 |
| TTATTG | 1.43 |
| TGCGAT | 1.2 |
| TCGCAC | 1.08 |
| ATCTTT | 1.29 |
| TACACC | 1.16 |
| CTCTGT | 1.5 |
| TTATCA | 1.2 |
| CTATAC | 1.07 |
| CTATGA | 0.973 |
| TCATTC | 1.34 |
| ATGATT | 1.21 |
| AACACA | 1.42 |
| TACATT | 1.09 |
| TTCCCC | 1.48 |
| ATCATA | 1.08 |
| CCTGAT | 1.5 |

| Sequence | binding signal |
| --- | --- |
| TCTCAA | 1.25 |
| ACTACC | 1.59 |
| CCAATC | 1.18 |
| GTTAAC | 1.25 |
| ATGATA | 1.27 |
| GAAGCT | 1.69 |
| CATCTG | 1.39 |
| TTCCTC | 2.1 |
| CGACTA | 1.58 |
| TAAGGT | 1.06 |
| TAACAA | 1.15 |
| GGAACA | 0.936 |
| ATTCTG | 1.38 |
| GCTCTG | 0.979 |
| TATTTC | 2.24 |
| CTCACT | 1.38 |
| TATAAG | 1.08 |
| CTTAGA | 1.24 |
| TGTAAA | 1.1 |
